# Results from one PubChem assay

From PubChem BioAssay record AID1159506 (NCATS, 2015).

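Genome-wide siRNA knockdown in TC32 Ewing sarcoma cells, comparing luciferase light from an NR0B1-promoter reporter with a CMV-promoter reporter 48 hours after transfection. Each siRNA was applied at 20 nM. A z-score of the log NR0B1-over-CMV signal, less the median of siRNAs with the same seed; more negative means a stronger specific loss of the NR0B1 reporter.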

This is part of the screen; most of the strongest results are not listed here. Sequences are the guide (antisense) strand, without overhang.

strand	gene	seed-corrected z-score
UCUGGAAUAUCUCCCUUCC	C9orf106	0.4461
AAUGUCAUAAUUUUCACCG	TBCA	0.4042
UUGAUUAUAACAAUCACUG	SNRNP48	-0.3131
UCCGUAUCCAGCAGAGUUC	SNX31	0.4829
UGAUAUCCAACAUUGAACC	STK39	0.05158
UAAGCAUCUUCAAUGGUGG	RIT1	0.3986
UCGCUUUUCACCUUCCAUG	XRRA1	0.6292
UUUGGGCAGAUUGAGCAGC	IGF2-AS	0.5479
UUGGAUGAAGGAGUGAAUG	IFT46	0.5793
UUUUAAACAGGUAAGUGUC	RBM43	-0.4469
CUGUCAUACACAUCUCCAG	IFNWP2	-0.5819
AAGUCUUCCGGAUAAUUUG	CDR1	0.2953
UGGAAUUACACGAAGUACC	CARF	1.002
UAAUUGUGACAUAGAGCUG	PIANP	-0.02308
UUGGGAACGUGUAACACGC	MLLT4	0.3297
UCAGAAGAAAGCAUGUUGG	FAM122A	0.248
AAUCUCACACCCAUUAUGG	TMEM14A	-0.122
UACACGGUCGUCUCUCUCC	SURF2	0.6879
UUAUCGAAGAUCACCUCCU	CEP170B	-0.2646
AAACGAAUGCACAAAAGUC	PITPNC1	0.4433
AGUUCACUCUGUUUGAUGC	APOC1	0.05242
UUAUCUAAUAGUCCCAAAC	TMCO2	0.8294
UGUGCACACGUAGUAAAGG	POLR2I	-0.8493
UAAUCAACCACAGCACAGU	GPR20	-0.6063
UACAGGUGAACUUCAGCUU	LOC729800	0.1897
AACGGAAAUCUGUUCCUGC	PRPF39	-0.08336
UCUCUUGCAGCAAUUAUCC	TRAF3	0.1809
UCUGUGAACAGGAUGAACA	SGSM1	0.8976
UAGCGGUCCAGUCUUACCU	C1QTNF7	2.204
AAAGCUUCAGGAUAAAGUC	GNA14	0.06961
AAGAAAUGCACUUGGAUUC	TPSG1	0.204
AACCCUACAUGUGCUCUGC	CCDC30	-0.1324
UUGCUGGAAUCGUUUACCC	GLYR1	-0.06611
CCACCUAGGAGUGUGAGUG	DUX1	1.316
UUAGGGACUUUAUCCAUAG	SH3D21	-0.7486
UUUCCUCCAGGGUACCAGC	GNRH2	1.418
ACAGUGUAUUGUGAUAUUC	FCGR1B	0.411
UCUUGUGCGAGCACCACAC	CENPBD1P1	-1.128

Repeated from the top, 2 entries:

- UCUGGAAUAUCUCCCUUCC against C9orf106 | seed-corrected z-score 0.4461
- AAUGUCAUAAUUUUCACCG against TBCA | seed-corrected z-score 0.4042